# In the supplement of paper PMC3334620:
# Over roughly 33,000 sequences, “E-score (-0.5 to 0.5)” has its median near -0.0034; the highest 2% begin near 0.25. The list shows a part of the results.
# Target: T1, Yap3 (UniProt P38749)
# T1 sequence: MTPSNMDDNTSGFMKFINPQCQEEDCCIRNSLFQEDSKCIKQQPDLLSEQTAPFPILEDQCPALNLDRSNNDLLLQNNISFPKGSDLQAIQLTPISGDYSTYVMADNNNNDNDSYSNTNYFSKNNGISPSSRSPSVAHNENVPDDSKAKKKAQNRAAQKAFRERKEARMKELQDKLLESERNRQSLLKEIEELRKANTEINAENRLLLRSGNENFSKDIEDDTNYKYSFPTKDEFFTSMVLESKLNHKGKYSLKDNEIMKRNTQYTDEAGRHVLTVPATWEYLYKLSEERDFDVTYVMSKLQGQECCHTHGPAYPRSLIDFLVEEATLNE
# Experiment: PBM E-score (8-mer binding enrichment) (E-score (-0.5 to 0.5)); higher = stronger / more preferred TF binding
# Conditions: protein concentration: 100 nM; construct: GST-full length
# Outline: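 E-scores (a modified Wilcoxon-Mann-Whitney statistic) were assigned by the Universal PBM Analysis Suite to every ungapped eight-base word pooled with its reverse complement. The input came from universal all-10-mer Agilent arrays made double-stranded by primer extension and probed with GST-tagged yeast transcription factors at about 100-200 nM. Fluorescent anti-GST detected bound protein, and masliner normalised the scans.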
row,Sequence,PBM E-score
1,CAGTCTTA,0.0462
2,ATTTCGCG,0.16
3,GGAAACTA,-0.061
4,AACTCTGC,-0.184
5,AAGTTGGG,-0.0957
6,ACGACGGA,0.119
7,CAGGGAGA,-0.287
8,CTCCGAGA,-0.0208
9,TACCTCTA,0.0153
10,TCATGCGA,0.0851
11,CGAGGCAG,-0.131
12,ATTTCAAC,0.124
13,CCTATGAC,-0.0848
14,CGTGGTCC,-0.212
15,CGATGTCC,-0.0116
16,AAAATGCT,0.188
17,ATCAGTGA,-0.149
18,GGAGTTAA,0.0511
19,AAGTCGAG,-0.158
20,CTGGCGAA,-0.0722
21,CCACAGGG,-0.278
22,AGTTGAGC,0.0258
23,AGAAGGTA,0.28
24,ATACGCAG,-0.0663
25,CACGCCCC,-0.132

row,Sequence,PBM E-score
1,ATCACTCC,-0.119
2,ATTCCCCC,-0.211
3,ATCTCGTG,-0.0821
4,TGGTTTAA,0.0814
5,CAATCTTC,0.126
6,GAGCTGGA,-0.219
7,GCCAACAC,-0.045
8,GTGCAGTA,-0.0443
9,CCCGTACA,-0.159
10,ACGCTTCT,0.00329
11,GTACCAGA,-0.0251
12,CAAATATC,0.285
13,CGACTGAC,-0.0829
14,GATAGCTA,-0.107
15,AATGCCCC,-0.109
16,ACACTAGT,0.0325
17,CGATTCGA,0.208
18,CCGCGCAA,-0.117
19,AACAATGT,0.00412
20,ATGGCTTG,-0.143
21,ATTTACTG,0.205
22,TAACGCTA,0.023
23,AACCTGTG,0.00997
24,AATTGGGA,0.127
25,ATCTCTGC,0.0777

row,Sequence,PBM E-score
1,AGTAAATA,0.26
2,AACGACCG,-0.00686
3,AGATAGCG,-0.0874
4,CTGCACAC,-0.138
5,ACTCAAGA,-0.00341
6,ATATTTTC,0.261
7,AAGGCCTC,-0.224
8,ACGCTGTC,-0.2
9,CTACGAGC,-0.0914
10,CCTAGTCG,-0.101
11,CTGGGCCC,-0.273
12,AGGTTGTC,-0.11
13,GTTTGCAA,0.157
14,CGACGCTC,-0.0108
15,AAGCTCGC,-0.134
16,CGTGAGTA,-0.0244
17,AACTTGGG,0.0624
18,GACCGCCA,-0.171
19,CGTACTTA,0.22
20,ATGATCTC,0.0357
21,CAACCGCA,0.00088
22,CACCACCC,-0.144
23,AGCCAATA,-0.0264
24,CACTCTGG,-0.136
25,CGAGGTGA,0.156

row,Sequence,PBM E-score
1,CCATGGGG,-0.249
2,CACTCCCC,-0.227
3,GGAATCTA,0.0443
4,AAATAGTC,-0.0119
5,GAGAAGGC,-0.158
6,CACCAAAG,-0.0224
7,CTACCTGA,-0.141
8,AGACCCAT,-0.13
9,ACGGAGAA,0.175
10,CCGTCTTC,-0.0587
11,AATTGCCT,0.0982
12,ATATTGAG,0.194
13,AAGCTAAC,0.0596
14,CTCCCTGA,-0.234
15,TATGTCCA,-0.0626
16,GCAGCAAC,-0.00458
17,GGTGCAGA,-0.236
18,CGGGAGCA,-0.121
19,CACTTTGC,0.0341
20,ATGAACCC,-0.0359
21,AGGCCGAT,-0.125
22,AATCCATT,0.185
23,AACTTCCA,-0.0704
24,AGCGCTGG,-0.0762
25,CAACTAGG,0.0485

row,Sequence,PBM E-score
1,ATACATCC,0.0891
2,CAATTTCC,0.0859
3,GATGCAGC,-0.00792
4,CAGGTATC,-0.0433
5,TCACCACA,0.24
6,ATTACAAA,0.37
7,AACAATAC,0.0469
8,CATTTTTC,0.16
9,GTCTCATA,0.0492
10,AATGCGCA,0.295
11,AGTTACGG,-0.0635
12,CTTCGCAC,-0.0403
13,TGGAACAA,0.144
14,AATTCCTG,-0.00277
15,ATGTATTG,0.241
16,ACAAGAGC,-0.0498
17,GTGCGTAA,0.0963
18,CAGACAGC,-0.0819
19,CGGCCTTC,-0.172
20,CCATGTAC,0.0608
21,ACTAATAC,0.288
22,GGTTTGTA,0.0503
23,ACCAGGGG,-0.359
24,AAATCGAG,0.00012
25,CTGTTAAA,0.177

# Quoted at random: 6 records from the list, in no set order.
row,Sequence,PBM E-score
1,ATCACTCC,-0.119
7,CAGGGAGA,-0.287
14,CGTGGTCC,-0.212
6,GAGCTGGA,-0.219
11,CTGGGCCC,-0.273
13,CGACTGAC,-0.0829

# Look-ups from the entries so far:
# For PBM E-score, TGGAACAA shows 0.144
# For PBM E-score, ACTAATAC shows 0.288
# For PBM E-score, CCATGTAC shows 0.0608
# For PBM E-score, ATACATCC shows 0.0891
# For PBM E-score, CATTTTTC shows 0.16

# More records follow.

row,Sequence,PBM E-score
1,GCCGTAAC,-0.112
2,CGCTGCAC,-0.0733
3,ATTCAGCG,0.0709
4,AAGTCTTC,-0.098
5,AAATACGC,0.151
6,AGACCCTA,-0.116
7,CAAGCCAC,-0.279
8,CCGCCCGA,-0.047
9,ATACGAAA,0.21
10,AAATCCGC,-0.0284
11,CGGCACAA,0.00092
12,ACAATTCG,0.145
13,AGATGTTC,-0.111
14,GACCCACA,0.111
15,AAGTATAA,0.249
16,TCGAATCA,0.0851
17,ACTCCTTA,-0.0776
18,CATTCCTA,0.0844
19,GCCCACAA,-0.141
20,ACGGCACC,-0.18
21,AGCTCGAA,0.011
22,CAATGGCG,-0.126
23,TCGAGGCA,0.0984
24,GTGCCGCA,-0.0486
25,TCATTCCA,0.0786

row,Sequence,PBM E-score
1,AATACTGC,0.0602
2,CAGCCGGA,0.158
3,AGCCTAGA,-0.199
4,CATAGAAG,-0.0416
5,CAGCGGTA,0.104
6,ACGCCGCA,0.00689
7,TCCCTCCA,-0.266
8,CGTAGGGC,-0.148
9,AATTGACA,0.0681
10,GAAATGGC,-0.037
11,AAAAGCGC,-0.00165
12,GATAAATC,0.00972
13,ACGGGACT,-0.167
14,CAGTTACC,-0.0283
15,CGAGAGCC,-0.31
16,ATTGTCAA,0.106
17,AACTAACC,0.21
18,ACCTAAGT,0.177
19,AACCCCAC,-0.079
20,GCGGCGTA,0.0911
21,GACTCCCC,-0.328
22,CAAGCACG,-0.0217
